This passage reports binding results from paper PMC5824958.

Amino acid sequences for entries named in this document (tags omitted).
UniProt P07825: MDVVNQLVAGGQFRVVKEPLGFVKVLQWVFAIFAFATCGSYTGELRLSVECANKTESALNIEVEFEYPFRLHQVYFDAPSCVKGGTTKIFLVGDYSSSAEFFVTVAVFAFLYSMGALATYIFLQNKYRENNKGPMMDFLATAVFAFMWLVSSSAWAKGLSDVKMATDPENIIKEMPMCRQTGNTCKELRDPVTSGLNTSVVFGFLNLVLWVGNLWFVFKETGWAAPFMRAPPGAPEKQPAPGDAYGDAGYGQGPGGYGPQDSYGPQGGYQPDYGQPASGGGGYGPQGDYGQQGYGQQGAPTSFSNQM

No constants are given. Whether binding was seen depends on the method and setting. In cells and extracts the contact can be indirect. Some results given as binding are weak or reduced against the parent protein; the word gives no strength.

The assay has as its target T1, BRI2 (integral membrane protein 2B) (rat (endogenous in brain)) (UniProt Q5XIE8).
T1 sequence: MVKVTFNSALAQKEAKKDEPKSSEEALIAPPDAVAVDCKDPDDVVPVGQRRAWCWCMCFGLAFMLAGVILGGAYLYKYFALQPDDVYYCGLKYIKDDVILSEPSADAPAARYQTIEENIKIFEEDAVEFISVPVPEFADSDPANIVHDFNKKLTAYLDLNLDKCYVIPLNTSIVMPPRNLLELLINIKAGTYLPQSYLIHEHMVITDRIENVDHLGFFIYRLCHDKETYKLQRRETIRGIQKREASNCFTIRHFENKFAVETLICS
In words: co-IP; rat cerebral cortex lysate; IP with anti-BRI2, anti-PSD-95, anti-synaptophysin or anti-GAP-43 antibody on Dynabeads Protein G; SDS-PAGE and immunoblot; mock IPs with mouse or rabbit IgG.

Regarding “Synaptophysin (from UniProt P07825 1-307)”, the binding entry is given as “binds”.
